Results taken from paper PMC11477393.
No constants are given. Whether binding was seen depends on the method and setting. In cells and extracts the contact can be indirect. Some entries that bind do so weakly or less than the wild type.

Sequences of proteins named here, by UniProt entry; tags and fusion partners are left off.
UniProt P09405: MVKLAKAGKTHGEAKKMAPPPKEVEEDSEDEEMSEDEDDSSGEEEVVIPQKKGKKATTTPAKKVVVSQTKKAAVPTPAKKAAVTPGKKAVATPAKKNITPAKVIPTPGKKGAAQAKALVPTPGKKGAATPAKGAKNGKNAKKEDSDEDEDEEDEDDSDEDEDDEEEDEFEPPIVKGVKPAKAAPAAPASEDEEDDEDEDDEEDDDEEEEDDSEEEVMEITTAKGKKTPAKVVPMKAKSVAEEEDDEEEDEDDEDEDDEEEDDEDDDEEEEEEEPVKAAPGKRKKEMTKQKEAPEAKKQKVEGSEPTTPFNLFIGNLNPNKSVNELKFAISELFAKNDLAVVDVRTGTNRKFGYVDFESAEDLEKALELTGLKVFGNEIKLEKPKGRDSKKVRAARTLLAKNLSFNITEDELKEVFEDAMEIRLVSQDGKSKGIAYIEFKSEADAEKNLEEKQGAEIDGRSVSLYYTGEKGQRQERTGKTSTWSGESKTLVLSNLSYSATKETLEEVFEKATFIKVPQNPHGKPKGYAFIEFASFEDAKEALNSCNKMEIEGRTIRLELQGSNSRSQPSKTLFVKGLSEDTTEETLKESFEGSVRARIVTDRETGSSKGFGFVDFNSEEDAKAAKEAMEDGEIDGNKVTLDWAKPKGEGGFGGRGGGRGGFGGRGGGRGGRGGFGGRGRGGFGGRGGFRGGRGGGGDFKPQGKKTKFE
UniProt Q6PDM2: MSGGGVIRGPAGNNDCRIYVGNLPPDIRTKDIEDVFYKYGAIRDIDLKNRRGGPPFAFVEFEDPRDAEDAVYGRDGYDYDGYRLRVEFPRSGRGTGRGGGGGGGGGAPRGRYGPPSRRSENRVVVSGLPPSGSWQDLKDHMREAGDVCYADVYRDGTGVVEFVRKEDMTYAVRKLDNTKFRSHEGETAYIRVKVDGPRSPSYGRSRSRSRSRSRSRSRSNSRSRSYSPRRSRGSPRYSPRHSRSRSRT

Assays:
[1] = biological target: T1, Npac (mouse (endogenous in E14)) (UniProt Q922P9); assay: co-IP; E14 cell lysate in NP40 lysis buffer (50 mM Tris-HCl pH 8.0, 1 mM EDTA, 150 mM NaCl, 1% NP-40, 10% glycerol), antibody-coated Protein A agarose beads, 4 °C, five washes, immunoblot; anti-Npac and reverse IPs, control IgG
T1 sequence: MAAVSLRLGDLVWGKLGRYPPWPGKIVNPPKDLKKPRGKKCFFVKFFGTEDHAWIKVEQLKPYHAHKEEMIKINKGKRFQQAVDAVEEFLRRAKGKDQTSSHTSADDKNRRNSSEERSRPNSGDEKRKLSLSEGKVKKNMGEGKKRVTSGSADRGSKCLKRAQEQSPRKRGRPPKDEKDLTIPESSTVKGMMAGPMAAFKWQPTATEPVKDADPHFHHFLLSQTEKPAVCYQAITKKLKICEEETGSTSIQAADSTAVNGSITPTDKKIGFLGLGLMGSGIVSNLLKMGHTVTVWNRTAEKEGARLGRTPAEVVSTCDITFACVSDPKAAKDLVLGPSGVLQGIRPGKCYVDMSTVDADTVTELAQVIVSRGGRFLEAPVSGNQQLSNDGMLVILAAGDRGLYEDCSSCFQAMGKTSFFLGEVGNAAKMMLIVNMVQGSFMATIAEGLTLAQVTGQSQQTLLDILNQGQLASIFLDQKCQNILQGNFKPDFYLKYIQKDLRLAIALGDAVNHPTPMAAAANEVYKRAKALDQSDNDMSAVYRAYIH

[2] = biological target: T1, Npac (mouse (endogenous in E14)); assay: co-IP; E14 nuclear extracts dialysed against BC50 buffer, with or without RNase A (100 μg/mL, 15 min), beads cross-linked with Npac antibody, rabbit IgG as control, Western blot

| Substance | binding [1] | binding [2] |
| --- | --- | --- |
| Nucleolin (from UniProt P09405 1-707) | binds | binds |
| Serine/arginine-rich splicing factor 1 (from UniProt Q6PDM2 1-248) | binds | binds |
